Here are results for five molecules from article PMC4270071.

No constants are given. Whether binding was seen depends on the method and setting. For some of these results: In cells and extracts the contact can be indirect. Some results given as binding are weak or reduced against the parent protein; the word gives no strength. For some of these results: Tags and fused reporters may be left off the sequences shown.

Assay [1] addresses T1, His6-tagged NOP10 (E. coli) (human) (UniProt Q9NPE3).
T1 sequence: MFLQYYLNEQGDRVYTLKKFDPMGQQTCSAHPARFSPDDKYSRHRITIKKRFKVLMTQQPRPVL
The assay can be described thus: co-purification of co-expressed subunits (tandem affinity); E. coli co-expressing untagged DKC1, HA-NAF1, FLAG-NHP2 and NOP10-His6 (NAF1 intermediate); Ni-NTA, Poros Heparin, anti-HA resin with HA peptide elution, anti-FLAG agarose with FLAG peptide elution; silver stain.

Assay [2] addresses T2, FLAG-tagged NHP2 (E. coli) (human) (UniProt Q9NX24).
T2 sequence: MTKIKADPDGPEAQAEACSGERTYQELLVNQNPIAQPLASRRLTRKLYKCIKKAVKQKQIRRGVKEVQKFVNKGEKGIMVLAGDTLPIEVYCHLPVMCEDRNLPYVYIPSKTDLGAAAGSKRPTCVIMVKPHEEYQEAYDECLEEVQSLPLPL
The description is as above.

Assay [3] addresses T3, dyskerin (DKC1) (human (endogenous in NT2)) (UniProt O60832).
T3 sequence: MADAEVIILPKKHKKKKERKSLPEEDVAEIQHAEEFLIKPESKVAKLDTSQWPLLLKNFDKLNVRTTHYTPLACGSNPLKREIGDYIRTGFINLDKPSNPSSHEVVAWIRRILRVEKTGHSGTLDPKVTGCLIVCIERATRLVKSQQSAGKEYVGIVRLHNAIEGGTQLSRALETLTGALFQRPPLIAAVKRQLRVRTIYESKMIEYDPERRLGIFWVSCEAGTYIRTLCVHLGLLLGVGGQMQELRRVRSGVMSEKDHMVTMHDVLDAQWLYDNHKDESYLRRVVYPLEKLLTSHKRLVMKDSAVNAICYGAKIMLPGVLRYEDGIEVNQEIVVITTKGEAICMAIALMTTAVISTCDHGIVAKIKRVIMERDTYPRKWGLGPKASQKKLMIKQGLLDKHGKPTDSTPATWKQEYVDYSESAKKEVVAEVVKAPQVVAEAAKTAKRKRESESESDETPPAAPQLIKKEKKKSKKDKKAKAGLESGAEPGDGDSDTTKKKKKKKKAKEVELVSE
Description: co-IP; Poros-HQ fractions of NT2 Ni-FT incubated 16 hr with anti-DKC1 monoclonal antibody on Protein G Sepharose, washed with 0.6 M KCl HEMG 0.2% NP-40, peptide elution; silver stain.

Assay [4] concerns the target T2, FLAG-tagged NHP2 (E. coli) (human). Description: co-purification of co-expressed subunits (tandem affinity); E. coli co-expressing untagged DKC1, HA-GAR1, FLAG-NHP2 and NOP10-His6 (holo complex); Ni-NTA, Poros Heparin, anti-HA resin with HA peptide elution, anti-FLAG agarose with FLAG peptide elution; silver stain; no detectable RNA.
The target in assay [5] is T4, HA-tagged NAF1 (E. coli) (UniProt Q96HR8).
T4 sequence: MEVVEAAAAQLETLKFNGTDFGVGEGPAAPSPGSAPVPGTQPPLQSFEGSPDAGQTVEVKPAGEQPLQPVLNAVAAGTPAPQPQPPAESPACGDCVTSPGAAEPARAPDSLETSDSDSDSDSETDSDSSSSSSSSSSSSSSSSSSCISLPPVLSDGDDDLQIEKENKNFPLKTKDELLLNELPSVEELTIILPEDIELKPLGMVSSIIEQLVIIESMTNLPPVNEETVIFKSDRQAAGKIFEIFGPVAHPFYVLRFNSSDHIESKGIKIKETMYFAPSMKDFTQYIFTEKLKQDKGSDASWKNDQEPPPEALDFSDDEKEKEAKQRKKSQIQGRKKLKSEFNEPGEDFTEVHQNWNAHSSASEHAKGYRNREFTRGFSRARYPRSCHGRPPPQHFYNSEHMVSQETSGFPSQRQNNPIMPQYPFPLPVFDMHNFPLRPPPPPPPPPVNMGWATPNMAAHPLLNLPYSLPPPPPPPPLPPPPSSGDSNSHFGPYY
The assay can be described thus: co-purification of co-expressed subunits (tandem affinity); E. coli co-expressing untagged DKC1, HA-NAF1, FLAG-NHP2 and NOP10-His6 (NAF1 intermediate); Ni-NTA, Poros Heparin, anti-HA resin with HA peptide elution, anti-FLAG agarose with FLAG peptide elution; silver stain.

Assay [6] deals with T2, FLAG-tagged NHP2 (E. coli) (human). Description: co-purification of co-expressed subunits (tandem affinity); E. coli co-expressing untagged DKC1, FLAG-NHP2 and NOP10-His6 (heterotrimer); Ni-NTA, Poros Heparin, anti-FLAG agarose, washed at 0.7 M NaCl, FLAG peptide elution; silver stain.
The target in assay [7] is T5, FLAG-tagged NHP2 (Sf9) (human) (UniProt Q9NX24).
T5 sequence: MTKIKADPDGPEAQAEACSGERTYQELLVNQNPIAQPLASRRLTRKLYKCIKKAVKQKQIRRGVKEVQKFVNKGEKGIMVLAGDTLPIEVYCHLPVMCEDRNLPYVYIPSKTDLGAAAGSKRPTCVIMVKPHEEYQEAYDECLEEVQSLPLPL
Description: co-purification of co-expressed subunits (tandem affinity); Sf9 cells co-expressing His6-DKC1 (wild type or mutant), GAR1, FLAG-NHP2, NOP10 (wild type or R34W); Ni-NTA, Heparin Sepharose (1 M NaCl eluate), anti-FLAG agarose, mock or MNase treated, washed with 0.6 M NaCl, FLAG peptide elution; silver or Coomassie stain.

Assay [8] concerns the target T1, His6-tagged NOP10 (E. coli) (human). Description: co-purification of co-expressed subunits (tandem affinity); E. coli co-expressing untagged DKC1, HA-GAR1, FLAG-NHP2 and NOP10-His6 (holo complex); Ni-NTA, Poros Heparin, anti-HA resin with HA peptide elution, anti-FLAG agarose with FLAG peptide elution; silver stain; no detectable RNA.

B1: HA-tagged NAF1 (E. coli) (protein, UniProt Q96HR8 1-494)
chain: MEVVEAAAAQLETLKFNGTDFGVGEGPAAPSPGSAPVPGTQPPLQSFEGSPDAGQTVEVKPAGEQPLQPVLNAVAAGTPAPQPQPPAESPACGDCVTSPGAAEPARAPDSLETSDSDSDSDSETDSDSSSSSSSSSSSSSSSSSSCISLPPVLSDGDDDLQIEKENKNFPLKTKDELLLNELPSVEELTIILPEDIELKPLGMVSSIIEQLVIIESMTNLPPVNEETVIFKSDRQAAGKIFEIFGPVAHPFYVLRFNSSDHIESKGIKIKETMYFAPSMKDFTQYIFTEKLKQDKGSDASWKNDQEPPPEALDFSDDEKEKEAKQRKKSQIQGRKKLKSEFNEPGEDFTEVHQNWNAHSSASEHAKGYRNREFTRGFSRARYPRSCHGRPPPQHFYNSEHMVSQETSGFPSQRQNNPIMPQYPFPLPVFDMHNFPLRPPPPPPPPPVNMGWATPNMAAHPLLNLPYSLPPPPPPPPLPPPPSSGDSNSHFGPYY
B1: the binding entry in assay [1] and in assay [2] was “binds” each time.

B2: NHP2 (protein, UniProt Q9NX24 1-153)
chain: MTKIKADPDGPEAQAEACSGERTYQELLVNQNPIAQPLASRRLTRKLYKCIKKAVKQKQIRRGVKEVQKFVNKGEKGIMVLAGDTLPIEVYCHLPVMCEDRNLPYVYIPSKTDLGAAAGSKRPTCVIMVKPHEEYQEAYDECLEEVQSLPLPL
On to B2, for which the binding result in assay [3] is reported as “binds”.

B3: untagged human DKC1 (E. coli) (protein, UniProt O60832 1-514)
chain: MADAEVIILPKKHKKKKERKSLPEEDVAEIQHAEEFLIKPESKVAKLDTSQWPLLLKNFDKLNVRTTHYTPLACGSNPLKREIGDYIRTGFINLDKPSNPSSHEVVAWIRRILRVEKTGHSGTLDPKVTGCLIVCIERATRLVKSQQSAGKEYVGIVRLHNAIEGGTQLSRALETLTGALFQRPPLIAAVKRQLRVRTIYESKMIEYDPERRLGIFWVSCEAGTYIRTLCVHLGLLLGVGGQMQELRRVRSGVMSEKDHMVTMHDVLDAQWLYDNHKDESYLRRVVYPLEKLLTSHKRLVMKDSAVNAICYGAKIMLPGVLRYEDGIEVNQEIVVITTKGEAICMAIALMTTAVISTCDHGIVAKIKRVIMERDTYPRKWGLGPKASQKKLMIKQGLLDKHGKPTDSTPATWKQEYVDYSESAKKEVVAEVVKAPQVVAEAAKTAKRKRESESESDETPPAAPQLIKKEKKKSKKDKKAKAGLESGAEPGDGDSDTTKKKKKKKKAKEVELVSE
With B3, the binding result in assay [4], in assay [2], in assay [5] and in assay [6] was “binds” each time.

B4: untagged GAR1 (Sf9) (protein, UniProt Q9NY12 1-217)
chain: MSFRGGGRGGFNRGGGGGGFNRGGSSNHFRGGGGGGGGGNFRGGGRGGFGRGGGRGGFNKGQDQGPPERVVLLGEFLHPCEDDIVCKCTTDENKVPYFNAPVYLENKEQIGKVDEIFGQLRDFYFSVKLSENMKASSFKKLQKFYIDPYKLLPLQRFLPRPPGEKGPPRGGGRGGRGGGRGGGGRGGGRGGGFRGGRGGGGGGFRGGRGGGFRGRGH
Take B4: the binding result in assay [7] is on record as “binds”.

B5: HA-tagged GAR1 (E. coli) (protein, UniProt Q9NY12 1-217)
chain: MSFRGGGRGGFNRGGGGGGFNRGGSSNHFRGGGGGGGGGNFRGGGRGGFGRGGGRGGFNKGQDQGPPERVVLLGEFLHPCEDDIVCKCTTDENKVPYFNAPVYLENKEQIGKVDEIFGQLRDFYFSVKLSENMKASSFKKLQKFYIDPYKLLPLQRFLPRPPGEKGPPRGGGRGGRGGGRGGGGRGGGRGGGFRGGRGGGGGGFRGGRGGGFRGRGH
On to B5, for which the binding result in assay [8] and in assay [4] was “binds” each time.
